No constants are given. Whether binding was seen depends on the method and setting. Binding seen in cells or lysates may run through a third protein. Here binding means that the protein was enriched with, or labelled near, the bait; the list need not be complete.
T1: M6a-loops (rat) (UniProt Q812E9)
T1 sequence (chain, biotin on the BAP (sec-BirA from the pBig plasmid)): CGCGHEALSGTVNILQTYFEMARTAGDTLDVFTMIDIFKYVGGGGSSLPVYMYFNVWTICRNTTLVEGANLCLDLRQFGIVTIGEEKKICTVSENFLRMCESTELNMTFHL

Protein sequences, listed by entry. Tags and fused reporters are not part of them. Lines headed by an entry give the natural chain unless they say otherwise; changes in a name come on top. Chains listed by the source or under a name are the forms on record and can include a tag or linker. Residues count along the entry.
UniProt P97546, residues 29-393: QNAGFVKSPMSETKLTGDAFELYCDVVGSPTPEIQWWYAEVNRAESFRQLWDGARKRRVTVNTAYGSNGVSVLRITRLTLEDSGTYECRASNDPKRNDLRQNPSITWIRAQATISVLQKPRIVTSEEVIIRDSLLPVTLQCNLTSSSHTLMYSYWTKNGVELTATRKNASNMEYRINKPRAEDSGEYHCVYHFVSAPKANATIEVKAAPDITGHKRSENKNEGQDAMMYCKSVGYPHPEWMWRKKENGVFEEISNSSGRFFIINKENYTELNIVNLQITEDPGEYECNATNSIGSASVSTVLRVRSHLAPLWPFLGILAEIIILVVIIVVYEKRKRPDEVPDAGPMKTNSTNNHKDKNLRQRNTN
UniProt P55067, residues 23-1257: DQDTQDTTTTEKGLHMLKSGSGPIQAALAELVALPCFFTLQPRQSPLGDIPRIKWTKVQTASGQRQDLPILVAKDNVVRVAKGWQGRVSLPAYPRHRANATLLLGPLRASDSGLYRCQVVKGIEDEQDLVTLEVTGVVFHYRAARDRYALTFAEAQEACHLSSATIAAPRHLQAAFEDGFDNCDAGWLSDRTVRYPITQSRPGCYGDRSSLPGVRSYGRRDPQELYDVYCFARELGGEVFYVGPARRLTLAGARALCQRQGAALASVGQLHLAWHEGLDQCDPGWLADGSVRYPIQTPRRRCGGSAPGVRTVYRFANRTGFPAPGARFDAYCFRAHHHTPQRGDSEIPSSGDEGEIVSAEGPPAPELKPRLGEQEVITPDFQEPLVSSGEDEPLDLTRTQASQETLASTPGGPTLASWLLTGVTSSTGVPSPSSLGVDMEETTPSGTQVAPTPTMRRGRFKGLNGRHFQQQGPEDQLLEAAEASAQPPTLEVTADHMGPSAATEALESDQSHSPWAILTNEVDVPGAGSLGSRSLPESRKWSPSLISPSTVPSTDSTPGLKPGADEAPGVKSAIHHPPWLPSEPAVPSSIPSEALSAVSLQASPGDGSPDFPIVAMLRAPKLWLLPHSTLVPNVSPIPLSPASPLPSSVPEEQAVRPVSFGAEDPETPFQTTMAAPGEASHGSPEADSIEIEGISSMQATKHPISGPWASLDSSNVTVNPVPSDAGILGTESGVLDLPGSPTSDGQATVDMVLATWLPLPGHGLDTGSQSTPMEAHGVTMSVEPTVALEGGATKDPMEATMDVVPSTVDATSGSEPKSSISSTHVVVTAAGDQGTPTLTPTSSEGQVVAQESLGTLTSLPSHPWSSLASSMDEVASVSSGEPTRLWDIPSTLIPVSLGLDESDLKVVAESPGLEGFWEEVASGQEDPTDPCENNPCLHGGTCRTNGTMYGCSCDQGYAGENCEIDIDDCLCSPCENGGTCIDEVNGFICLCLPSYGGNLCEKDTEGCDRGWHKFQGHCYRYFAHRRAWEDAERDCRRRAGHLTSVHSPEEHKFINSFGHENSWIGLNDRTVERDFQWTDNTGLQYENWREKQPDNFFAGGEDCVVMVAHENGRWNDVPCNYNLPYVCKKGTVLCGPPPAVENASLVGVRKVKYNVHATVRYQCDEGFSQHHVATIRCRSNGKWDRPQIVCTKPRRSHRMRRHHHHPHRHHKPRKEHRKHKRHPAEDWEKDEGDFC
UniProt Q07310, residues 28-1578: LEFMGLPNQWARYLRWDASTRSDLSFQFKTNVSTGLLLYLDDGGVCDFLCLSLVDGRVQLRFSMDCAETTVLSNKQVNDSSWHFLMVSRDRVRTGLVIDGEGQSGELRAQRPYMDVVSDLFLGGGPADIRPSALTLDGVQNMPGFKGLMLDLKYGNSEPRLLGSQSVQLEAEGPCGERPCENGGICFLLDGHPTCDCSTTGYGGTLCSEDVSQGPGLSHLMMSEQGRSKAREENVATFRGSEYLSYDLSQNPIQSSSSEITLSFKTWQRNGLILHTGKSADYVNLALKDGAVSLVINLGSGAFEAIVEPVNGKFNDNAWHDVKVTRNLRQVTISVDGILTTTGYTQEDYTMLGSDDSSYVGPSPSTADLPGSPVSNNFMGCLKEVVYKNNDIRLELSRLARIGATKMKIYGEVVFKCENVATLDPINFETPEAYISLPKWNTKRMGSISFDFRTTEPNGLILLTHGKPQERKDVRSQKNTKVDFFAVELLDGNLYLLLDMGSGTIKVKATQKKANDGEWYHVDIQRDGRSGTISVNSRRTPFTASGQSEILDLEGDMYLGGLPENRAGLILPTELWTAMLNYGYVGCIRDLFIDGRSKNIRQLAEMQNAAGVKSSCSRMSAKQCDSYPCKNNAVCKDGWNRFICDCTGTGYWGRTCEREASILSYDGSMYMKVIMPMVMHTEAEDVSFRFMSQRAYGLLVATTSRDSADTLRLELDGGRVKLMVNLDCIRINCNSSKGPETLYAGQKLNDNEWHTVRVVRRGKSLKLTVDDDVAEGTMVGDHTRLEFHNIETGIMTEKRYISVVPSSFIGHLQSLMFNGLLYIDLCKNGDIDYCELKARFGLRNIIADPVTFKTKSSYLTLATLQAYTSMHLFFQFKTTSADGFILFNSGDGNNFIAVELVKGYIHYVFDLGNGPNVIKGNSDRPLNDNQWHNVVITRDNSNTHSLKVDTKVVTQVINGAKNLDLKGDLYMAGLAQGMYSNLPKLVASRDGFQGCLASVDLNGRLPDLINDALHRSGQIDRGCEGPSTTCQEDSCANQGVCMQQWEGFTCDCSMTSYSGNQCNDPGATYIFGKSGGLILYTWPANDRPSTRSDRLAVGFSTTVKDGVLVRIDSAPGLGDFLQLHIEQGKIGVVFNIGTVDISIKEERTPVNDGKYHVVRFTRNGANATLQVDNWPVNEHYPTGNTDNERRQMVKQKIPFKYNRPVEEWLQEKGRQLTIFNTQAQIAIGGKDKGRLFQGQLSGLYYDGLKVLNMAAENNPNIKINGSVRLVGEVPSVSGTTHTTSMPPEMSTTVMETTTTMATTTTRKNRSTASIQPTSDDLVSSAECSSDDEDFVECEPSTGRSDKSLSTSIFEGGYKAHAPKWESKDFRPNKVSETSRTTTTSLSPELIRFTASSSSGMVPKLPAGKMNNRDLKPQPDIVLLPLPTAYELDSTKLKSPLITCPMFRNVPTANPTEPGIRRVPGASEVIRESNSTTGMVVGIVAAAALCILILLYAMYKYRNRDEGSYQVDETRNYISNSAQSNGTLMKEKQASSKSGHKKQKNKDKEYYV
UniProt P23385, residues 19-1199: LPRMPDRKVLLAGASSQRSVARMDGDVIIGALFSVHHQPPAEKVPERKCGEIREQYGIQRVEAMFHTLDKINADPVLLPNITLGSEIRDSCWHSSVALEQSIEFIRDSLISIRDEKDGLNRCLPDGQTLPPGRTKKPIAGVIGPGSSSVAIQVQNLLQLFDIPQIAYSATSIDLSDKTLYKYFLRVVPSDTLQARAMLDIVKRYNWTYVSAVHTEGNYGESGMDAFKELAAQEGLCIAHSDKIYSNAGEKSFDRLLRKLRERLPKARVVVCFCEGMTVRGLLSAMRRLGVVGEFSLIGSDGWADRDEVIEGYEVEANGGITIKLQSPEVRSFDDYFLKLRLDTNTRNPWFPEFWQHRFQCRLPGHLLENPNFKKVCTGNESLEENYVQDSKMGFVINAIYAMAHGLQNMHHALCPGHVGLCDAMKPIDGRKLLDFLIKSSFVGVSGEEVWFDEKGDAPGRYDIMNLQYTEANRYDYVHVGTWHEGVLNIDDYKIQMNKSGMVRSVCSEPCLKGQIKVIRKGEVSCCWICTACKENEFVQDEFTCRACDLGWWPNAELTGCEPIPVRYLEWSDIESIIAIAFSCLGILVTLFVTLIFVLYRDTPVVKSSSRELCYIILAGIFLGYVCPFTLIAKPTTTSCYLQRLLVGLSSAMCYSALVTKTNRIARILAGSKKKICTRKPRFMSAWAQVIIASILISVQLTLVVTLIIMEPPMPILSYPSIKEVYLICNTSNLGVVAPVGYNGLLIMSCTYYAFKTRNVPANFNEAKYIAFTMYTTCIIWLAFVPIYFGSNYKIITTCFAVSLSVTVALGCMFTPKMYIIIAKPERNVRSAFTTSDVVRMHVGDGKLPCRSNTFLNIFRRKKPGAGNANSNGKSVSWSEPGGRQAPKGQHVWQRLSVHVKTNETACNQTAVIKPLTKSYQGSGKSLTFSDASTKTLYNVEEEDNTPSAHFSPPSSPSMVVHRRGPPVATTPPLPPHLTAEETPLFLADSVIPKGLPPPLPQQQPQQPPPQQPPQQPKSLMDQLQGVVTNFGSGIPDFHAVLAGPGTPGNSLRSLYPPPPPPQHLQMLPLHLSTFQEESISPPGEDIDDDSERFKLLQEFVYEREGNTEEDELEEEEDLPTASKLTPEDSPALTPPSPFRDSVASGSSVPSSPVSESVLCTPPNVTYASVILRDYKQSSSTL
UniProt P08592, residues 18-770: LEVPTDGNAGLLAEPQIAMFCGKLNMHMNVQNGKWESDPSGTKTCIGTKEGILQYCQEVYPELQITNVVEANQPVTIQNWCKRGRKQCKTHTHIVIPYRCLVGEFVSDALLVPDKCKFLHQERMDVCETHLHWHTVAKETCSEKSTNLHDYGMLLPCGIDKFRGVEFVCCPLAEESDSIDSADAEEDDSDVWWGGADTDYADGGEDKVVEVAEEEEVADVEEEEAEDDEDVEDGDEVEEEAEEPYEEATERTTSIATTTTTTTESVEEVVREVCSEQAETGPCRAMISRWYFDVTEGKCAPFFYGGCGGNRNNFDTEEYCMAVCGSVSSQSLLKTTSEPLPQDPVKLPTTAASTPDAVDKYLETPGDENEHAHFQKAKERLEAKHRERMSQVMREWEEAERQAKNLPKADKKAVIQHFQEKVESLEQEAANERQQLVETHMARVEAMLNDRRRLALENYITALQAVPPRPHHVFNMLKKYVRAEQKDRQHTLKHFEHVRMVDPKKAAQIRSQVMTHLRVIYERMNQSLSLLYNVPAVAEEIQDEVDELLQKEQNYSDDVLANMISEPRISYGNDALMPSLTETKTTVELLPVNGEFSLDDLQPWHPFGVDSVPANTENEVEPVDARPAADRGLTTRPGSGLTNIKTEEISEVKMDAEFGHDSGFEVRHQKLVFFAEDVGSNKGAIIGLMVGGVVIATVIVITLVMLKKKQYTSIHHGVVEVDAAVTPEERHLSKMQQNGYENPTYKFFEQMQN
UniProt P13596, residues 20-858: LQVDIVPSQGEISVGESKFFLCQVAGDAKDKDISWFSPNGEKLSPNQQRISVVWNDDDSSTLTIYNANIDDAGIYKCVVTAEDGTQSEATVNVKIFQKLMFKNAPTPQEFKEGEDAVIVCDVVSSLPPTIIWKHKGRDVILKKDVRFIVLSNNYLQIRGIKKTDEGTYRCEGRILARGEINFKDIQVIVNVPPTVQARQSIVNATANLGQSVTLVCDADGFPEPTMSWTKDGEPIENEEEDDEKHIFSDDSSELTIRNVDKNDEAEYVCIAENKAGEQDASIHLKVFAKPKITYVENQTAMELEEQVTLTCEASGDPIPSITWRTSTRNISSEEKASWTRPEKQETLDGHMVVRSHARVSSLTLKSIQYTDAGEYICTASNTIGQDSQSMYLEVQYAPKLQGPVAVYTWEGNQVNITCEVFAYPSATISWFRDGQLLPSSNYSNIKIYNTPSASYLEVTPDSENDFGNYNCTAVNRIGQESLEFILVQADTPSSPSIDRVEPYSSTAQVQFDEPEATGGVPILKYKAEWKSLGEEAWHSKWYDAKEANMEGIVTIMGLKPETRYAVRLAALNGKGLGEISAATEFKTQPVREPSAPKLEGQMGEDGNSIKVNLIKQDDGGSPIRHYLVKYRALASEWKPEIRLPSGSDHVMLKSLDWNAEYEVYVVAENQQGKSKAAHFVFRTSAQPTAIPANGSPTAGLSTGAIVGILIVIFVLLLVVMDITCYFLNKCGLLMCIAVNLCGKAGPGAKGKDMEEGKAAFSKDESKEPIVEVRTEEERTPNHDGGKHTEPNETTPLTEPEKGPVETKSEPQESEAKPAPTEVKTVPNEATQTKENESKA
Atp6v1a (D4A133, form named): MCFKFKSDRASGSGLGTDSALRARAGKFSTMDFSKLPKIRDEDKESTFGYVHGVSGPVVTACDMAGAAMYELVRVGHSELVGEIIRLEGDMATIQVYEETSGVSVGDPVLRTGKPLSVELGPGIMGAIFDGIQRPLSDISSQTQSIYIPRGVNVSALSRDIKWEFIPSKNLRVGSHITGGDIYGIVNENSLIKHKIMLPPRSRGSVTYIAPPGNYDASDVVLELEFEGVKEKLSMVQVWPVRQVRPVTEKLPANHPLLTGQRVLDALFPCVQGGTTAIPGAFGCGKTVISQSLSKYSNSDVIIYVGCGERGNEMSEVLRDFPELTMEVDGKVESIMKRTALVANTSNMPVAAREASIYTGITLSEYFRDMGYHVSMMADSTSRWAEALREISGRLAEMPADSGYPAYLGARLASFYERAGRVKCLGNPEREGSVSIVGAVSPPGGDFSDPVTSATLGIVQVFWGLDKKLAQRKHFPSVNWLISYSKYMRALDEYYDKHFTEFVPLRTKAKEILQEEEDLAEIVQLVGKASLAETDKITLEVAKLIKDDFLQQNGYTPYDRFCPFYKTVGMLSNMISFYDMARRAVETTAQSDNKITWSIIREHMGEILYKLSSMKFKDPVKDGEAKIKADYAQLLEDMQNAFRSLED


Each molecule was assayed against T1, M6a-loops (rat) (assay: affinity purification with mass spectrometry; M6a-loops (10-25 ug, from concentrated supernatant) held by anti-SV5-mAb cross-linked to protein A magnetic beads (1 h, room temperature); incubated with clarified pooled rat hippocampi extract (P14, P21, P30; 1% Triton X-100 in PBS; 200-350 ug) overnight at 4 C; washed three times with PBS-T; eluted in SDS buffer with DTT; TMT/MS; mock: M6a-loops with protein A beads without anti-SV5; three co-IPs with two replicates each).

| binding | Molecule |
| --- | --- |
| binds | Synj1 (from UniProt Q62910 1-1574) |
| binds | Nptn (from UniProt P97546 29-393) |
| binds | Stxbp1 (from UniProt P61765 1-594) |
| binds | Ncan (from UniProt P55067 23-1257) |
| binds | Atp1b1 (from UniProt P07340 1-304) |
| binds | Atp2b2 (from UniProt P11506 1-1243) |
| binds | Atp6v1h (rat (endogenous in hippocampus)) |
| binds | Gja1 (from UniProt P08050 1-382) |
| binds | Bsn (from UniProt O88778 1-3938) |
| binds | Vdac1 (from UniProt Q9Z2L0 1-283) |
| binds | Cadps (from UniProt Q62717 1-1289) |
| binds | Atp1b2 (from UniProt P13638 1-290) |
| binds | Nrxn3 (from UniProt Q07310 28-1578) |
| binds | Dpysl3 (from UniProt Q62952 1-570) |
| binds | piccolo (from UniProt Q9JKS6 1-5085) |
| binds | Aqp4 (from UniProt P47863 1-323) |
| binds | Epb41l2 (rat (endogenous in hippocampus)) |
| binds | metabotropic glutamate receptor 1 (from UniProt P23385 19-1199) |
| binds | Syn2 (from UniProt Q63537 1-586) |
| binds | glutamate ionotropic receptor, GRIN1 (from UniProt P35439 19-938) |
| binds | Atp6v1g2 (rat (endogenous in hippocampus)) |
| binds | Slc1a3 (protein, UniProt P24942 1-543) MTKSNGEEPRMGSRMERFQQGVRKRTLLAKKKVQNITKEDVKSYLFRNAFVLLTVSAVIVGTILGFALRPYKMSYREVKYFSFPGELLMRMLQMLVLPLIISSLVTGMAALDSKASGKMGMRAVVYYMTTTIIAVVIGIIIVIIIHPGKGTKENMYREGKIVQVTAADAFLDLIRNMFPPNLVEACFKQFKTSYEKRSFKVPIQANETLLGAVINNVSEAMETLTRIREEMVPVPGSVNGVNALGLVVFSMCFGFVIGNMKEQGQALREFFDSLNEAIMRLVAVIMWYAPLGILFLIAGKILEMEDMGVIGGQLAMYTVTVIVGLLIHAVIVLPLLYFLVTRKNPWVFIGGLLQALITALGTSSSSATLPITFKCLEENNGVDKRITRFVLPVGATINMDGTALYEALAAIFIAQVNNFDLNFGQIITISITATAASIGAAGIPQAGLVTMVIVLTSVGLPTDDITLIIAVDWFLDRLRTTTNVLGDSLGAGIVEHLSRHELKNRDVEMGNSVIEENEMKKPYQLIAQDNEPEKPVADSETKM |
| binds | Slc4a4 (protein, UniProt Q9JI66 1-1079) MEDEAVLDRGASFLKHVCDEEEVEGHHTIYIGVHVPKSYRRRRRHKRKAGHKEKKEKERISENYSDKSDVENADESSSSILKPLISPAAERIRFILGEEDDSPAPPQLFTELDELLAVDGQEMEWKETARWIKFEEKVEQGGERWSKPHVATLSLHSLFELRTCMEKGSIMLDREASSLPQLVEMIADHQIETGLLKPDLKDKVTYTLLRKHRHQTKKSNLRSLADIGKTVSSASRMFSNPDNGSPAMTHRNLTSSSLNDISDKPEKDQLKNKFMKKLPRDAEASNVLVGEVDFLDTPFIAFVRLQQAVMLGALTEVPVPTRFLFILLGPKGKAKSYHEIGRAIATLMSDEVFHDIAYKAKDRHDLIAGIDEFLDEVIVLPPGEWDPAIRIEPPKSLPSSDKRKNMYSGGENVQMNGDTPHDGGHGGGGHGDCEELQRTGRFCGGLIKDIKRKAPFFASDFYDALNIQALSAILFIYLATVTNAITFGGLLGDATDNMQGVLESFLGTAVSGAIFCLFAGQPLTILSSTGPVLVFERLLFNFSKDHSFDYLEFRLWIGLWSAFMCLILVATDASFLVQYFTRFTEEGFSSLISFIFIYDAFKKMIKLADYYPINSDFRVGYNTHFSCACLPPDPVNLSVSNDTTLAPEDLPTVSSTDMYHNATFDWAYLSKKECVKFGGKLVGNNCDFVPDITLMSFILFLGTYTSSMAMKKFKTSRYFPTTARKLISDFAIILSILIFCVIDALVGVDTPKLIVPSEFKPTSPHRGWFVPPFGGNPWWVCLAAAIPALLVTILIFMDQQITAVIVNRKEHKLKKGAGYHLDLFWVAILMVVCSFMALPWYVAATVISIAHIDSLKMETETSAPGEQPKFLGVREQRVTGTLVFILTGLSVFMAPILKFIPMPVLYGVFLYMGVASLNGVQFMDRLKLLLMPLKHQPDFIYLRHVPLRRVHLFTSLQVLCLALLWILKSTVAAIIFPVMILALVAVRKGMDYLFSQHDLSFLDDVIPEKDKKKKEDEKKKKKKKGSLDSDNDDSDCPYSEKVPSIKIPMDITEQQPFLSDNKPLDRERSSTFLERHTSC |

Second part, the molecule before the results:

| Molecule | binding |
| --- | --- |
| App (from UniProt P08592 18-770) | binds |
| Lrp1 (from UniProt G3V928 20-4545) | binds |
| Epb41l3 (from UniProt A3E0T0 1-870) | binds |
| Sv2a (from UniProt Q02563 1-742) | binds |
| Atp6v1b2 (from UniProt P62815 1-511) | binds |
| Cpne6 (rat (endogenous in hippocampus)) | binds |
| Atp6v1c1 (from UniProt Q5FVI6 1-382) | binds |
| Eno2 (from UniProt P07323 1-434) | binds |
| Anxa5 (from UniProt P14668 1-319) | binds |
| Dpp6 (from UniProt P46101 1-859) | binds |
| Bcan (from UniProt P55068 23-883) | binds |
| Atp1a2 (from UniProt P06686 1-1020) | binds |
| Atp2b4 (from UniProt Q64542 1-1203) | binds |
| Omg (rat (endogenous in hippocampus)) | binds |
| Syt1 (from UniProt P21707 1-421) | binds |
| Slc3a2 (from UniProt Q794F9 1-527) | binds |
| neural cell adhesion molecule 1 (from UniProt P13596 20-858) | binds |
| synapsin 1 (from UniProt P09951 1-704) | binds |
| Atp1a3 (from UniProt P06687 1-1013) | binds |
| synaptophysin (from UniProt P07825 1-307) | binds |
| Ppia (from UniProt P10111 1-164) | binds |
| Atp6v1e1 (from UniProt Q6PCU2 1-226) | binds |
| Atp6v0a1 (from UniProt P25286 1-838) | binds |
| Scn2a (from UniProt P04775 1-2005) | binds |
| Atp6v1a (from UniProt D4A133 1-647) | binds |
| Ttyh3 (rat (endogenous in hippocampus)) | binds |
| Epb41 (rat (endogenous in hippocampus)) | binds |
| Snap25 (from UniProt P60881 1-206) | binds |
| Tnc (rat (endogenous in hippocampus)) | binds |
| synaptic vesicle glycoprotein 2B (from UniProt Q63564 1-683) | binds |
